Some entries share one result that the patent states for a list of compounds.
How the values were obtained:
Type in all cases: in vivo
[1] = test system: Stellaria media; assay: Pre-emergence herbicidal action against weed plants; conditions: application rate 320 g/ha, visual assessment after 3 weeks vs untreated controls
[2] = test system: Amaranthus retroflexus; assay: as above; conditions: application rate 320 g/ha, visual assessment after 3 weeks vs untreated controls
[3] = test system: Echinochloa crus galli; assay: as above; conditions: application rate 320 g/ha, visual assessment after 3 weeks vs untreated controls
[4] = test system: Veronica persica; assay: as above; conditions: application rate 320 g/ha, visual assessment after 3 weeks vs untreated controls
[5] = test system: Abutilon theophrasti; assay: Post-emergence herbicidal action against weed plants; conditions: application rate 80 g/ha, visual assessment after about 3 weeks vs untreated controls
[6] = test system: Veronica persica; assay: as above; conditions: application rate 80 g/ha, visual assessment after about 3 weeks vs untreated controls
[7] = test system: Amaranthus retroflexus; assay: as above; conditions: application rate 80 g/ha, visual assessment after about 3 weeks vs untreated controls
[8] = test system: Stellaria media; assay: as above; conditions: application rate 80 g/ha, visual assessment after about 3 weeks vs untreated controls
[9] = test system: Cyperus serotinus; assay: Pre-emergence herbicidal action against weed plants; conditions: application rate 320 g/ha, visual assessment after 3 weeks vs untreated controls
[10] = test system: Setaria viridis; assay: as above; conditions: application rate 320 g/ha, visual assessment after 3 weeks vs untreated controls

Cn1ncnc1C(C#N)C(=O)c1ccc(S(C)(=O)=O)cc1[N+](=O)[O-] (stereo not drawn) [1-1, 2-(2-nitro-4-(methylsulfonyl)benzoyl)-2-(1-methyl-1,2,4-triazol-5-yl)acetonitrile]
at least 80%: efficacy (herbicidal activity in percent) [1] | efficacy (herbicidal activity in percent) [2]

Cn1ncnc1C(C#N)C(=O)c1ccc(S(C)(=O)=O)c(COCC(F)(F)F)c1Cl (stereo not drawn) [1-49]
at least 80%: efficacy (herbicidal activity in percent) [1] | efficacy (herbicidal activity in percent) [2] | efficacy (herbicidal activity in percent) [3] | efficacy (herbicidal activity in percent) [4] | efficacy (herbicidal action in percent) [5] | efficacy (herbicidal action in percent) [6] | efficacy (herbicidal action in percent) [7] | efficacy (herbicidal action in percent) [8]

Cc1c(C(=O)C(C#N)c2ncnn2C)ccc(S(C)(=O)=O)c1C1=NOCC1 (stereo not drawn) [1-11]
at least 80%: efficacy (herbicidal activity in percent) [1] | efficacy (herbicidal activity in percent) [2] | efficacy (herbicidal activity in percent) [9] | efficacy (herbicidal activity in percent) [10] | efficacy (herbicidal activity in percent) [3] | efficacy (herbicidal activity in percent) [4] | efficacy (herbicidal action in percent) [5] | efficacy (herbicidal action in percent) [6] | efficacy (herbicidal action in percent) [7] | efficacy (herbicidal action in percent) [8]

Cc1c(C(=O)C(C#N)c2ncnn2C)ccc(S(C)(=O)=O)c1S(C)(=O)=O (stereo not drawn) [1-15]
at least 80%: efficacy (herbicidal activity in percent) [1] | efficacy (herbicidal activity in percent) [2] | efficacy (herbicidal activity in percent) [9] | efficacy (herbicidal activity in percent) [10] | efficacy (herbicidal activity in percent) [3] | efficacy (herbicidal activity in percent) [4] | efficacy (herbicidal action in percent) [5] | efficacy (herbicidal action in percent) [6] | efficacy (herbicidal action in percent) [7] | efficacy (herbicidal action in percent) [8]

Cc1c(-c2oncc2-c2ncnn2C)ccc(C(F)(F)F)c1S(C)(=O)=O [3-9, 5-(2-methyl-3-(methylsulfonyl)-4-(trifluoromethyl)phenyl)-4-(1-methyl-1,2,4-triazol-5-yl)isoxazole]
at least 80%: efficacy (herbicidal activity in percent) [1] | efficacy (herbicidal activity in percent) [2] | efficacy (herbicidal activity in percent) [3] | efficacy (herbicidal activity in percent) [4] | efficacy (herbicidal action in percent) [5] | efficacy (herbicidal action in percent) [6] | efficacy (herbicidal action in percent) [7] | efficacy (herbicidal action in percent) [8]

Cc1c(C(=O)C(C#N)c2ncnn2C)ccc(C(F)(F)F)c1S(C)(=O)=O (stereo not drawn) [1-9, 2-(2-methyl-3-(methylsulfonyl)-4-trifluoromethylbenzoyl)-2-(1-methyl-1,2,4-triazol-5-yl)acetonitrile]
at least 80%: efficacy (herbicidal activity in percent) [1] | efficacy (herbicidal activity in percent) [2] | efficacy (herbicidal activity in percent) [9] | efficacy (herbicidal activity in percent) [10] | efficacy (herbicidal activity in percent) [3] | efficacy (herbicidal activity in percent) [4] | efficacy (herbicidal action in percent) [5] | efficacy (herbicidal action in percent) [6] | efficacy (herbicidal action in percent) [7] | efficacy (herbicidal action in percent) [8]

Cn1ncnc1C(C#N)C(=O)c1ccc(S(C)(=O)=O)cc1Cl (stereo not drawn) [1-3]
at least 80%: efficacy (herbicidal activity in percent) [1] | efficacy (herbicidal activity in percent) [2] | efficacy (herbicidal action in percent) [5] | efficacy (herbicidal action in percent) [6] | efficacy (herbicidal action in percent) [7] | efficacy (herbicidal action in percent) [8]

— patent US9107414B2, “Tetrazol-5-yl- and triazol-5-yl-aryl compounds and use thereof as herbicides” (BAYER INTELLECTUAL PROPERTY GMBH, priority 2012, dated 2015)
